{"source": "PubChem BioAssay AID686937 (Drosophila RNAi Screening Center, 2013)", "screen": "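Knock-downs that reduce output of a secreted reporter enzyme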 (primary screen)", "cells": "Drosophila S2 cells expressing secreted horseradish peroxidase", "knock-down reagent": "long dsRNA against Drosophila genes", "timing": "about 5.5 days (5 days dsRNA, then 12 h reporter induction)", "treatment": "reporter expression induced after 5 days of dsRNA, read 12 h later; inducer not stated", "measured": "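Chemiluminescent measurement of peroxidase in the medium 12 h after reporter induction, following 5 days of dsRNA, given as a z-score per plate; higher means more secretion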", "reading the numbers": "z-score: higher = more reporter secreted into medium", "note": "In all, the deposit lists about 23,000 reagents; below is an unselected part of those that have a named target and a result. 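Reduced-secretion tags in replicate 1 do not always agree with the z-scores; no criterion for assigning the tags was given.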 Names joined by + are all predicted targets of the reagent. Further read-outs or replicates are left out here. The record does not give: the amount of reagent."}
{"Gene": "kuk (kugelkern)", "amplicon": "DRSC15730", "z-score, replicate 1": 0.18}
{"Gene": "Stoml2 (Stomatin like 2)", "amplicon": "DRSC04326", "z-score, replicate 1": 0.1}
{"Gene": "CG9861", "amplicon": "DRSC04576", "z-score, replicate 1": 0.3}
{"Gene": "CG12017", "amplicon": "DRSC08225", "z-score, replicate 1": 0.56}
{"Gene": "ENGase (Endo-beta-N-acetylglucosaminidase)", "amplicon": "DRSC19952", "z-score, replicate 1": -1.63}
{"Gene": "ENGase (Endo-beta-N-acetylglucosaminidase)", "amplicon": "DRSC19953", "z-score, replicate 1": 0.12}
{"Gene": "Met (Methoprene-tolerant)", "amplicon": "DRSC20284", "z-score, replicate 1": 0.18}
{"Gene": "nAChRbeta3 (nicotinic Acetylcholine Receptor beta3)", "amplicon": "DRSC00325", "z-score, replicate 1": 0.43}
{"Gene": "CIAPIN1 (Cytokine induced apoptosis inhibitor 1)", "amplicon": "DRSC03559", "z-score, replicate 1": 0.07}
{"Gene": "Ubx (Ultrabithorax)", "amplicon": "DRSC16891", "z-score, replicate 1": 0.22}
{"Gene": "Gp150", "amplicon": "DRSC04618", "z-score, replicate 1": 0.08}
{"Gene": "CG12945", "amplicon": "DRSC14573", "z-score, replicate 1": 0.02}
{"Gene": "fbl (fumble)", "amplicon": "DRSC11886", "z-score, replicate 1": -0.47}
{"Gene": "Rpn8 (Regulatory particle non-ATPase 8)", "amplicon": "DRSC04624", "z-score, replicate 1": -6.44, "phenotype, replicate 1": "reduced secretion"}
{"Gene": "CG15023", "amplicon": "DRSC08477", "z-score, replicate 1": 0.53}
{"Gene": "CG7945", "amplicon": "DRSC10934", "z-score, replicate 1": 0.47}
{"Gene": "se (sepia)", "amplicon": "DRSC10713", "z-score, replicate 1": 0.38}
{"Gene": "phtf", "amplicon": "DRSC05023", "z-score, replicate 1": 0.37}
{"Gene": "CG31220", "amplicon": "DRSC22248", "z-score, replicate 1": 0.13}
{"Gene": "nom (numerous disordered muscles)", "amplicon": "DRSC16389", "z-score, replicate 1": 0.27}
{"Gene": "Ugt307A1 (UDP-glycosyltransferase family 307 member A1)", "amplicon": "DRSC02138", "z-score, replicate 1": -0.12}
{"Gene": "Est-P (Esterase P)", "amplicon": "DRSC11163", "z-score, replicate 1": 0.13}
{"Gene": "CG10616", "amplicon": "DRSC09750", "z-score, replicate 1": 0.04}
{"Gene": "Scgbeta (Sarcoglycan beta)", "amplicon": "DRSC15854", "z-score, replicate 1": 0.13}
{"Gene": "CG1513", "amplicon": "DRSC05194", "z-score, replicate 1": -0.17}
{"Gene": "CG1513", "amplicon": "DRSC06553", "z-score, replicate 1": 0.81}
{"Gene": "CG1513", "amplicon": "DRSC06554", "z-score, replicate 1": 0.32}

5 successive entries from above:
{"Gene": "CG7945", "amplicon": "DRSC10934", "z-score, replicate 1": 0.47}
{"Gene": "se (sepia)", "amplicon": "DRSC10713", "z-score, replicate 1": 0.38}
{"Gene": "phtf", "amplicon": "DRSC05023", "z-score, replicate 1": 0.37}
{"Gene": "CG31220", "amplicon": "DRSC22248", "z-score, replicate 1": 0.13}
{"Gene": "nom (numerous disordered muscles)", "amplicon": "DRSC16389", "z-score, replicate 1": 0.27}

Additional results follow:
{"Gene": "CG8960", "amplicon": "DRSC08612", "z-score, replicate 1": -0.19}
{"Gene": "CG17159 + CG17162", "amplicon": "DRSC20899", "z-score, replicate 1": -0.12}
{"Gene": "CG17159 + CG17162", "amplicon": "DRSC20900", "z-score, replicate 1": 0.33}
{"Gene": "spi (spitz)", "amplicon": "DRSC03618", "z-score, replicate 1": 0.13}
{"Gene": "SPoCk (Secretory Pathway Calcium atpase)", "amplicon": "DRSC11675", "z-score, replicate 1": 0.3}
{"Gene": "SPoCk (Secretory Pathway Calcium atpase)", "amplicon": "DRSC11706", "z-score, replicate 1": 0.8}
{"Gene": "SPoCk (Secretory Pathway Calcium atpase)", "amplicon": "DRSC11844", "z-score, replicate 1": 0.23}
{"Gene": "SPoCk (Secretory Pathway Calcium atpase)", "amplicon": "DRSC11845", "z-score, replicate 1": 0.4}
{"Gene": "CG11449", "amplicon": "DRSC11662", "z-score, replicate 1": 0.27}
{"Gene": "pigeon", "amplicon": "DRSC03565", "z-score, replicate 1": 0.28}
{"Gene": "bnb (bangles and beads)", "amplicon": "DRSC20314", "z-score, replicate 1": 0.09}
{"Gene": "CG12782", "amplicon": "DRSC04127", "z-score, replicate 1": 0.32}
{"Gene": "e(r) (enhancer of rudimentary)", "amplicon": "DRSC18768", "z-score, replicate 1": 0.3}
{"Gene": "RNaseZ (Ribonuclease Z)", "amplicon": "DRSC06845", "z-score, replicate 1": 0.4}
{"Gene": "CG14180 (retired record)", "amplicon": "DRSC10179", "z-score, replicate 1": -0.71}
{"Gene": "CG11581", "amplicon": "DRSC19407", "z-score, replicate 1": 0.39}
{"Gene": "TwdlU (TweedleU)", "amplicon": "DRSC12224", "z-score, replicate 1": 0.29}
{"Gene": "CG7115", "amplicon": "DRSC02000", "z-score, replicate 1": 0.56}
{"Gene": "CG13403", "amplicon": "DRSC19535", "z-score, replicate 1": 0.22}
{"Gene": "dtn (detonator)", "amplicon": "DRSC17939", "z-score, replicate 1": 0.4}
{"Gene": "CG9106", "amplicon": "DRSC20154", "z-score, replicate 1": 0.2}
{"Gene": "CG42471", "amplicon": "DRSC01210", "z-score, replicate 1": 0.41}
{"Gene": "CG13947", "amplicon": "DRSC00365", "z-score, replicate 1": -0.24}
{"Gene": "wrm1 + wrm2", "amplicon": "DRSC11007", "z-score, replicate 1": 0.5}
